Laboratory results published in the supplement of paper PMC11098740.
This is one part of the list. Single values are uncertain, as repeats are few or missing.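 The assay uses a mixed pool of 41 HAP1 clones in which 61 cancer-associated proteins bear intron-inserted fluorescent tags, and clones are distinguished by image pattern. Results are compared against DMSO-treated control wells, and the BRD4 degrader dBET6 is the positive control.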 Where a SMILES comes first, the peptide text is derived from it. The star is where a group is joined. Cbz = O=C(OCc1ccccc1)*

By UniProt entry, the sequences of proteins in these tests, tags left out.
UniProt O14980, whole entry: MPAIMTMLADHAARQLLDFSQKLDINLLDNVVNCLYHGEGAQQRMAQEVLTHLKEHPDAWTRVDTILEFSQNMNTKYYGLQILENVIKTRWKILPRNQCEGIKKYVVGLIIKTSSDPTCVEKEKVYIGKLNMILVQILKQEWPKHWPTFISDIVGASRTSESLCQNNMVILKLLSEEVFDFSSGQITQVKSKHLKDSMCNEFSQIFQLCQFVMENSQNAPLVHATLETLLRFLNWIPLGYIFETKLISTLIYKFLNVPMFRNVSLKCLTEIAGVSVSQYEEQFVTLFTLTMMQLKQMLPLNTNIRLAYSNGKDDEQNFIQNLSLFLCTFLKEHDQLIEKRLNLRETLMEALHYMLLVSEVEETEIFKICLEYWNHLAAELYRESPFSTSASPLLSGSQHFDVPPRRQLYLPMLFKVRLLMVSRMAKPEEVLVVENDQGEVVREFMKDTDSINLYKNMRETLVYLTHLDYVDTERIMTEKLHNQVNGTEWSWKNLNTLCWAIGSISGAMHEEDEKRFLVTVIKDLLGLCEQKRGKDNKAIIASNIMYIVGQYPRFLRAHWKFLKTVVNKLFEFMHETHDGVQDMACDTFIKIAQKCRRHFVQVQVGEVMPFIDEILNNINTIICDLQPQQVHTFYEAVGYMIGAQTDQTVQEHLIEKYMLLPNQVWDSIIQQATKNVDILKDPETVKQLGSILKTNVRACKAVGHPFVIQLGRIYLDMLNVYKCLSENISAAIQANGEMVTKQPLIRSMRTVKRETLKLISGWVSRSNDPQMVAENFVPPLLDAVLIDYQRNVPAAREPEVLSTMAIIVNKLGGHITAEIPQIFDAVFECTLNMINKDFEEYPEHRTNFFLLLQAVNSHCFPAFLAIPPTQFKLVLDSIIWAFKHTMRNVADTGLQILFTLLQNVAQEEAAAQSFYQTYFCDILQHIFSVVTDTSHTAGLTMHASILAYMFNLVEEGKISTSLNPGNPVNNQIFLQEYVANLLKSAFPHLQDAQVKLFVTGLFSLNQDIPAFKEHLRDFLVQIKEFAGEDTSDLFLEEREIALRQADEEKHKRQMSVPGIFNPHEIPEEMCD

Tests used:
[1] = molecular target: XPO1 (intron 15 mScarlet tag, HAP1) (UniProt O14980); assay: XPO1 fluorescence intensity change vs DMSO (log2 fold change); higher = more XPO1 protein; settings: 6 h
[2] = molecular target: BRD4 (intron 10 mScarlet tag, HAP1) (UniProt O60885); assay: BRD4 median nuclear fluorescence intensity change vs DMSO (log2 fold change); higher = more BRD4 protein; settings: 6 h

Row | Compound | XPO1 fluorescence intensity change (log2) [1] | BRD4 median nuclear fluorescence intensity change (log2) [2]
1 | NCC(CO)Cc1cccc(OC(F)(F)F)c1 (configuration not stated) (10 µM) | -0.0466 | 0.148
2 | CCOC(=O)C1=C(C)N(c2ccc3c(c2)OCCO3)C(=S)NC1c1ccccc1 (configuration not stated) (10 µM) | 0.121 | 0.0534
3 | COc1ccccc1Nc1nc(N)nc(CCl)n1 (1 µM) | -0.208 | -0.00907
4 | COc1ccccc1N1CCN(C(=O)c2cn(C)c(=O)c3ccccc23)CC1 (1 µM) | -0.264 | 0.16
5 | COc1ccc(/C=N/Nc2ncnc3sc(C)c(C)c23)c(OC)c1OC (10 µM) | 0.00099 | 0.237
6 | O=C(Nc1ccc(N2CCCCC2)c2ccncc12)c1ccccc1 (10 µM) | 0.00969 | 0.0274
7 | O=C(/C=C/c1cccc(Br)c1)c1ccc(O)c(CCCl)c1 (0.1 µM) | 0.0508 | 0.0197
8 | Cn1nc(C(=O)Nc2nc(CN3CCCC3)cs2)c2ccccc2c1=O (1 µM) | -0.013 | 0.0408
9 | N#CC1=C(N)Oc2c(ccc3cccnc23)C1c1ccccc1 (configuration not stated) (0.1 µM) | -0.144 | 0.083
10 | CN(CC(=O)NCc1ccco1)C(=O)c1ccc(COc2ccccc2)o1 (10 µM) | -0.0863 | -0.0313
11 | Cc1nc(-c2cccs2)sc1C(=O)N1c2ccccc2CC1C (configuration not stated) (10 µM) | 0.0288 | 0.098
12 | O=C(Nc1cccc(C(F)(F)F)c1)c1ccccc1O (10 µM) | -0.192 | 0.0764
13 | Cc1cc(N2CCN(c3ccc(C(F)(F)F)cn3)CC2)nc(C(C)C)n1 (10 µM) | -0.0474 | 0.0883
14 | O=S(=O)(Nc1ccc(Cl)c2cccnc12)c1ccccc1 (10 µM) | -0.27 | 0.0514
15 | O=C(c1cc(-c2ccncc2)nc2ccccc12)N1CCN(c2ccccc2)CC1 (1 µM) | -0.281 | 0.0902
16 | CCCCn1c(=O)[nH]c(=O)c2c1nc(CCl)n2CC (10 µM) | 0.0953 | 0.0623

Three structures already listed, sorted by count of non-hydrogen atoms, smallest number first.
Row | Compound | XPO1 fluorescence intensity change (log2) [1] | BRD4 median nuclear fluorescence intensity change (log2) [2]
9 | N#CC1=C(N)Oc2c(ccc3cccnc23)C1c1ccccc1 (configuration not stated) (0.1 µM) | -0.144 | 0.083
5 | COc1ccc(/C=N/Nc2ncnc3sc(C)c(C)c23)c(OC)c1OC (10 µM) | 0.00099 | 0.237
10 | CN(CC(=O)NCc1ccco1)C(=O)c1ccc(COc2ccccc2)o1 (10 µM) | -0.0863 | -0.0313

Additional compounds.

Row | Compound | XPO1 fluorescence intensity change (log2) [1] | BRD4 median nuclear fluorescence intensity change (log2) [2]
17 | CC(C)C[C@@H](C=O)NC(=O)[C@H](CC(C)C)NC(=O)[C@H](CC(C)C)NC(=O)OCc1ccccc1 (10 µM) (Cbz-Leu-Leu-Leu-aldehyde) | -0.082 | -0.168
18 | Cc1cccc(CN(Cc2ccc(OCCCCl)cc2)Cc2cccc(C)n2)n1 (10 µM) | 0.0142 | 0.00131
19 | CN(C)c1cccc(C(=O)c2cccc(N(C)C)c2)c1 (10 µM) | -0.108 | 0.0623
20 | CCOc1ccc(C(=O)NCc2cnn(Cc3ccccc3)c2)cn1 (10 µM) | 0.0877 | 0.0669
21 | Cc1nn(-c2ccc(C(=O)NCc3cccnc3)cc2)c(C)c1Cl (1 µM) | 0.0251 | 0.117
22 | Cc1cc(NC(=O)NCc2ccc(Oc3ccc(F)cc3)cc2)no1 (10 µM) | 0.0583 | 0.0238
23 | COc1ccc(CN(C)c2ncnc3sccc23)cc1 (10 µM) | -0.0688 | -0.0362
24 | CCOC(=O)Cc1csc(NC(=O)c2ccc(-n3cccc3)cc2)n1 (10 µM) | -0.0345 | 0.00651
25 | COc1ccc(-c2nc3ccccc3n2C(=O)c2ccccc2C(=O)O)cc1 (1 µM) | 0.14 | -0.0516
26 | CCN(/N=C/c1c(OC)nc2sccn12)c1ccc(C)cc1 (10 µM) | -0.0115 | 0.0813
27 | COc1cn(-c2ccccc2)nc1C(=O)Nc1cccnc1N1CCCC1 (1 µM) | 0.0341 | 0.111
28 | O=C(CSc1nnc(-c2ccccc2)o1)Nc1ccccc1F (10 µM) | 0.045 | -0.00967
29 | COc1cccc2cc(-c3csc(Nc4ccc(O)cc4)n3)c(=O)oc12 (10 µM) | 0.06 | -0.0895
30 | Nc1nn2cc(-c3ccccc3)nc2c2ccccc12 (10 µM) | 0.0855 | -0.0214
31 | CCc1cc2c(N3CCC(C(=O)Nc4cc(C)on4)CC3)ncnc2s1 (10 µM) | -0.0489 | –
32 | COc1ccc(NC(=O)c2ccc(CCl)cc2)cc1 (0.1 µM) | -0.114 | –
